Data as given in PubChem BioAssay AID1259308 (NCATS, 2017)
Assay: 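Knock-downs that increase output of a recombinant reporter protein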 (primary screen). Cell system: human HEK293 embryonic kidney cells stably expressing firefly luciferase (HEK-CMV-Luc2-Hygro). Knock-down reagent: single siRNA against human genes, 0.8 pmol siRNA per well. Time to read-out: 72 h. Detection: 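Reporter luminescence and viable-cell signal on separate replicate plates, given as percent of non-targeting control and median/MAD z-scores, plus per-cell luciferase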. Direction: total luciferase, z-score and total luciferase, % of control: higher = more reporter protein produced; luciferase per cell, z-score: higher = more reporter output per viable cell. Call rule: 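Active when the median/MAD z-score for overall luciferase is greater than 3; a gene was taken forward for validation with new siRNAs if at least two of its three siRNAs passed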. Meaning of the calls: active = raised luciferase; inactive = no rise.
The deposit covers about 59,000 reagents; below is an unselected part. In the full data, about 1,510 (2.6%) are marked active. 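Calls use total luciferase alone and ignore viability, so some active siRNAs may act by altering cell number.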 Entries without a mark were called inactive. Reagents against one gene are numbered here. Not all columns of the deposit are shown.

| target | siRNA no. | total luciferase, z-score | total luciferase, % of control | luciferase per cell, z-score |
| --- | --- | --- | --- | --- |
| PKNOX1 (GeneID 5316) | 1 | 0.77 | 97.2 | 1.69 |
| PKNOX1 (GeneID 5316) | 2 | -1.08 | 60.4 | 0.176 |
| PKNOX1 (GeneID 5316) | 3 | -0.564 | 70.7 | -0.541 |
| COX11 (GeneID 1353) | 1 | -0.115 | 79.6 | -0.0293 |
| COX11 (GeneID 1353) | 2 | -0.0469 | 81 | -1.07 |
| COX11 (GeneID 1353) | 3 | -1 | 61.9 | -1.23 |
| CWF19L1 (GeneID 55280) | 1 | -1 | 62 | 0.332 |
| CWF19L1 (GeneID 55280) | 2 | 0.646 | 94.7 | 0.552 |
| CWF19L1 (GeneID 55280) | 3 | -0.374 | 74.4 | 0.181 |
| TXK (GeneID 7294) | 1 | -0.364 | 74.6 | -0.536 |
| TXK (GeneID 7294) | 2 | -1.38 | 54.4 | -0.511 |
| TXK (GeneID 7294) | 3 | 0.125 | 84.4 | 0.68 |
| ARIH2 (GeneID 10425) | 1 | 0.653 | 94.9 | 0.566 |
| ARIH2 (GeneID 10425) | 2 | -0.805 | 65.9 | -0.237 |
| ARIH2 (GeneID 10425) | 3 | 0.743 | 96.7 | 0.822 |
| OR6A2 (GeneID 8590) | 1 | 2.3 | 128 | 1.81 |
| OR6A2 (GeneID 8590) | 2 | 0.708 | 96 | 0.703 |
| OR6A2 (GeneID 8590) | 3 | 0.315 | 88.2 | -0.0642 |
| BNIP2 (GeneID 663) | 1 | 0.0446 | 82.8 | 0.0914 |
| BNIP2 (GeneID 663) | 2 | -1.43 | 53.4 | 0.608 |
| BNIP2 (GeneID 663) | 3 | -1.01 | 61.7 | -0.161 |
| ANKRD46 (GeneID 157567) | 1 | 1.11 | 104 | 0.691 |
| ANKRD46 (GeneID 157567) | 2 | 0.293 | 87.7 | -0.327 |
| ANKRD46 (GeneID 157567) | 3 | -0.674 | 68.5 | -0.686 |
| BGN (GeneID 633) | 1 | 0.44 | 90.6 | 0.403 |
| BGN (GeneID 633) | 2 | -0.289 | 76.1 | -0.758 |
| BGN (GeneID 633) | 3 | 3.27 (active) | 147 | 2.51 |
| MFN1P1 (GeneID 441511) | 1 | 0.0936 | 83.7 | 0.912 |
| MFN1P1 (GeneID 441511) | 2 | 0.0699 | 83.3 | 0.0911 |
| MFN1P1 (GeneID 441511) | 3 | -0.605 | 69.9 | -0.19 |
| TMPRSS11E (GeneID 28983) | 1 | 0.411 | 90.1 | 0.306 |
| TMPRSS11E (GeneID 28983) | 2 | -0.211 | 77.7 | -0.7 |
| TMPRSS11E (GeneID 28983) | 3 | -0.103 | 79.8 | 1.64 |
| ACTMAP (GeneID 284325) | 1 | -2.61 | 29.9 | -2.23 |
| ACTMAP (GeneID 284325) | 2 | -1.45 | 52.9 | -1.88 |
| ACTMAP (GeneID 284325) | 3 | -1.65 | 49 | -1.59 |
| KCNG4 (GeneID 93107) | 1 | -0.143 | 79 | -0.294 |
| KCNG4 (GeneID 93107) | 2 | -0.188 | 78.2 | 0.108 |
| KCNG4 (GeneID 93107) | 3 | 0.669 | 95.2 | -0.343 |
| SQSTM1 (GeneID 8878) | 1 | 0.885 | 99.5 | 0.636 |
| SQSTM1 (GeneID 8878) | 2 | -0.143 | 79 | 0.28 |
| SQSTM1 (GeneID 8878) | 3 | -0.744 | 67.1 | -1.43 |
| SNCG (GeneID 6623) | 1 | 0.0171 | 82.2 | 0.512 |
| SNCG (GeneID 6623) | 2 | -0.541 | 71.1 | -0.659 |
| SNCG (GeneID 6623) | 3 | 0.633 | 94.5 | 0.096 |
| SLC25A51 (GeneID 92014) | 1 | -0.147 | 79 | -0.636 |
| SLC25A51 (GeneID 92014) | 2 | -1.09 | 60.3 | -1.37 |
| SLC25A51 (GeneID 92014) | 3 | 0.514 | 92.1 | 0.0962 |
| SH2D1A (GeneID 4068) | 1 | 0.343 | 88.7 | -0.257 |
| SH2D1A (GeneID 4068) | 2 | 0.995 | 102 | 2.26 |
| SH2D1A (GeneID 4068) | 3 | 0.304 | 87.9 | 0.594 |
| CSDC2 (GeneID 27254) | 1 | 0.585 | 93.5 | 0.493 |
| CSDC2 (GeneID 27254) | 2 | -1.53 | 51.4 | -0.744 |
| CSDC2 (GeneID 27254) | 3 | -1.22 | 57.6 | -0.915 |
| TARS2 (GeneID 80222) | 1 | 0.236 | 86.6 | -0.0504 |
| TARS2 (GeneID 80222) | 2 | -0.0328 | 81.2 | -0.0784 |
| TARS2 (GeneID 80222) | 3 | -0.442 | 73.1 | -0.43 |

A stretch from the list above, for reference:
| target | siRNA no. | total luciferase, z-score | total luciferase, % of control | luciferase per cell, z-score |
| --- | --- | --- | --- | --- |
| PKNOX1 (GeneID 5316) | 1 | 0.77 | 97.2 | 1.69 |
| PKNOX1 (GeneID 5316) | 2 | -1.08 | 60.4 | 0.176 |
| PKNOX1 (GeneID 5316) | 3 | -0.564 | 70.7 | -0.541 |
| COX11 (GeneID 1353) | 1 | -0.115 | 79.6 | -0.0293 |
| COX11 (GeneID 1353) | 2 | -0.0469 | 81 | -1.07 |
| COX11 (GeneID 1353) | 3 | -1 | 61.9 | -1.23 |
| CWF19L1 (GeneID 55280) | 1 | -1 | 62 | 0.332 |
| CWF19L1 (GeneID 55280) | 2 | 0.646 | 94.7 | 0.552 |
